Reference: patent US20220017615A1
These are yes or no findings as the source states them, for the method shown. Some results given as binding are weak or reduced against the parent protein; the word gives no strength.

Protein sequences, listed by entry. Tags and fused reporters are not part of them. Residues count along the entry.
UniProt Q08722, residues 19-139: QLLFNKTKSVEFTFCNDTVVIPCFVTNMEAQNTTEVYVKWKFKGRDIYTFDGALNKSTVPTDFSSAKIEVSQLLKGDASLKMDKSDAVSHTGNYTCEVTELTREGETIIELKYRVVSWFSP

B1: c29A03NA (antibody, V domains shown)
VH: EVQLQQSGAELVKPGASVKMSCKASGYTFTNYWITWVKQRPGQGLEWIGDIYPVSGGTDYNEKFKTRATLTVDTSSSTAYMHLSSLTSEDSAVYYCARKGRGGVDYWGQGTTLTVSS
VL: DILMTQTPLSLPVSLGDQASISCRSSQSIVHSNANTYLEWYLQKPGQSPKLLIYKVSNRFSGVPDRFSGSGSGTDFTLKISRVEAEDLGVYFCSQSTHVPYTFGGGTKLEIK
B2: c95E2D10 (antibody, V domains shown)
VH: QIQLQQSGPELVKPGASMKISCKASGYPFTDYYIHWVKQKPGQGLEWIGWIYPGSGNNKYNEKFKGKATLTVDTSPSTVYMQLSSLTSEDTAVYFCARRAGNYFDYWGQGTTLTVSS
VL: NIVMTQSPKSMSRSVGERVTLSCRASENVRTYVFWYQQKPGLSPKLLIYGASNRYIGVPDRFTGSGSATDFTLTISSVQAEDLADYHCGQSYSYPLTFGAGTKLELK
B3: c25E3B5 (antibody, V domains shown)
VH: QVQLQQPGTALVRPGSSVKLSCKASGYTFTSYWMHWVRQRPIKGLEWIGNIDPSDSETHYNQRFKDKVTLTVDKSSNTAYMQLSSLTSEDSAVYYCARWKYHGIGAMDYWGQGTSVTVSS
VL: DVQITQSPSYLAASPGETVTISCRTNRNISKFLAWYQEKPGKTNKLLIYSGSTLHSGIPSRFSGSGSGTDFTLTISRLEPEDFAMYYCQQHNEYPWSFGGGTKLEIK
B4: c20H4G5 (antibody, V domains shown)
VH: QVQLQQPGAELVRPGSSVRLSCVTSGYTFTSHWMHWVKQGPIKGLEWIGNIDPSDSETHYNQKFKDKATLTVDKSSSTAYMQLSRLTSDDSAVYYCARWRHLGIGAMDYWGQGTSVIVSS
VL: DVQITQSPSYLAASPGETITINCRASKNISKFLAWYQAKPGKSNNLLIYSGSTLQSGIPSRFSGSGSGTDFTLTISRLEPEDFAMYYCQQHNEYPWTFGGGTKLEIK
B5: c51E2F11 (antibody, V domains shown)
VH: EVQLQQSGAELVKPGASVKLSCTASGFNIKDHYIHWMNQRTEQGLEWIGRIDPDDGETRYAPKFRGKATLTADTSSNTAYLQFSSLTSEDTAVYHCTRATTITRDWYFDVWGTGTTVTVSS
VL: DIVMTQSQKFMSTSVGDRVSITCKASQNVRTSVAWYQQKPGQSPKALIYLASNRHTGIPDRFTGSGSGTDFTLTIRNVQSEDLADYFCLQHWDYPLTFGAGTKLELK
B6: c4D10B11 (antibody, V domains shown)
VH: QVQLQQSGPELVKPGASVKISCKASGYSFTSYYIHWVKQRPGQGLEWIGWIYPGSGNTKYNEKFKGKATLTADTSSSTADMQLSSLTSEDSAVYYCARRGDWYFDVWGTGTTVTVSS
VL: DIVMSQSPSSLVVSVGEKVTMNCKSSQSLLFSGNQKSSLAWYQQKPGQSPKLLIYWASTRESGVPDRFTGSGSGTDFTLIISTVKAEDLAVYSCQQYYSYPLTFGAGTKLELK

Each binder was assayed against T1, mouse CD47, on CHOK1/mCD47 cells (mouse) (UniProt Q61735) (assay: flow cytometry (FACS) on CHOK1-mCD47 cells, mean fluorescence intensity).
T1 sequence (looked up): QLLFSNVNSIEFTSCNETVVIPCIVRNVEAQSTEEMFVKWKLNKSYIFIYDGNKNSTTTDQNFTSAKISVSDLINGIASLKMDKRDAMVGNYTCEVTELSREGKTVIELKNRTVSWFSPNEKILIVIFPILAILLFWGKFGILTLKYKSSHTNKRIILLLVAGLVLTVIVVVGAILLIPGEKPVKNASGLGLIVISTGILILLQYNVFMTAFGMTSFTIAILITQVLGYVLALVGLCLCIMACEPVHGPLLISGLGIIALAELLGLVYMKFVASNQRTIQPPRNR

binding, binds:
B1

These binders were tested against biotin-labeled CD47 extracellular domain protein (CD47-ECD) (UniProt Q08722) (assay: blocking ELISA: SIRPα-hFc coated, biotin-labeled CD47-ECD added with the antibody, OD450; blocked ligand SIRPα-hFc).

binding, binds:
B2, B1, B3, B4, B5, B6
